# Experimental data reported in patent publication US20060008800A1 (published 2006).
# B1: GST-ubMunc13-2 (372-494) (other)
# chain: PEEKASSPFTQARAHWFRAVTKVRLQLQEISDDGDPSLPQWLPEGPAGGLYGIDSMPDLRRKKPLPLVSDLAMSLVQSRKAGITSAMATRTSLKDEDLKSHVYKKTLQALIYPISCTTPHNFE
# notes: Expressed in bacteria, purified, adsorbed onto glutathione beads; also called GSTubMunc13-2 (aa 372-494); wt GST-ubMunc13-2 (372-494); not shown: GST tag (glutathione S-transferase)
# B2: GST-ubMunc13-2 (372-494) with W387R point mutation (other, not shown: a dimerising Fc or GST; large carriers; small tags and cut ends)
# chain: PEEKASSPFTQARAHRFRAVTKVRLQLQEISDDGDPSLPQWLPEGPAGGLYGIDSMPDLRRKKPLPLVSDLAMSLVQSRKAGITSAMATRTSLKDEDLKSHVYKKTLQALIYPISCTTPHNFE
# notes: also called GST-fusion proteins that contain the tryptophane mutations
# Legend:
# [1] = target: T1, Calmodulin from rat brain synaptosome extract (rat, UniProt P0DP29 2-149); experiment: GST cosedimentation with rat brain synaptosome extract, Calmodulin immunoblot
# [2] = target: T1, Calmodulin from rat brain synaptosome …; experiment: GST cosedimentation from rat brain synaptosome extract, Calmodulin immunoblot
Binder,binding result [1],binding result [2]
B1,binds,–
B2,–,no binding
